This assay can be described thus: IkB Signaling. The following applies: ABC-DLBCL IkBa-CBG/CBR dual luciferase ratio (green luciferase fused to IkBa over red control in OCI-Ly3 lymphoma cells), 4 h. In outline: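 Curves were fitted separately to fusion (green), unfused (red) and ratio luminescence, then classed by r2, magnitude and activity. Cells: OCI-Ly3, 4 h compound plus doxycycline at 37C; 10 uM MG-132 defined full response.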
Where [1] appears, read: measured here: control luc red channel unless noted.

The other results are listed elsewhere or left out. These are further read-outs of the screen, such as a control signal, another cell line or another target. No call is given for them. Compounds called inactive in the main read-out are mostly missing here. The note in brackets gives the kind of curve behind each potency; many fits are weak.

With `O=C(Nc1ccc2c(c1)OCCO2)C1CCCN(S(=O)(=O)Cc2ccccc2)C1` (configuration not stated), the AC50 under setting [1] is 25.1 µM [falling, partial curve].
Regarding `CCSc1ncc(Cl)c(C(=O)Nc2nc3ccc(Cl)cc3s2)n1`, the concentration at half-maximal activity (AC50) under setting [1] is 2.51 µM [rising, partial curve].
As for `COc1ccccc1-c1nnc(SCC(=O)NCc2c(C)c(Cl)cc(C(C)C)c2O)o1`, the half-maximal activity concentration (AC50) (measured here: IkB-luc green channel) is 20 µM [falling, partial curve, poor fit] and the AC50 (measured here: control luc red channel) was 25.1 µM [falling, partial curve].
Consider `O=C(Cn1c(=O)nc(-c2ccccc2)c2ccccc21)N1CCN(c2ccc(F)cc2)CC1`, for which, under setting [1], the half-maximal activity concentration (AC50) was 39.8 µM [falling, single point].
Turning to `COc1cc(OC)c(NC2=C(c3ccc(C(F)(F)F)cc3)C(=O)c3ccccc32)cc1Cl`, the AC50 under setting [1] was 6.31 µM [falling, partial curve].
Consider `CC(C)Oc1ccccc1NC(=O)CSc1nccn1C`, for which, under setting [1], the half-maximal activity concentration (AC50) was 39.8 µM [falling, single point].
The same measure, in the same setting: next, `O=C(O)CSc1nc2ccc(NC(=O)COc3ccc(Cl)cc3)cc2s1`: 25.1 µM [falling, partial curve]; `C#CCn1c(=O)n(-c2cccc(Cl)c2C)c(=O)c2c3c(sc21)CN(C(C)=O)CC3`: 10 µM [falling, partial curve].
The same measure, in the same setting: next, `Cc1ccc(C)c(N2CCN(CCCNC(=O)c3cnn(-c4ccc(F)cc4)c3C3CCN(C(=O)OC(C)(C)C)CC3)CC2)c1`: 10 µM [falling, partial curve].
For the compound `CC(C)C(=O)Nc1nc2c(s1)CC(C(C)(C)C)CC2` (configuration not stated), under setting [1], the half-maximal activity concentration (AC50) is 0.316 µM [rising, full curve].
The same measure, in the same setting: then `COc1ccc(-c2cnc(C)o2)cc1S(=O)(=O)Nc1ccc(OC(F)(F)F)cc1`, with 20 µM [falling, partial curve]; and `O=C(COc1ccccc1)Nc1cccc(-c2nnc(-c3ccccc3)o2)c1`, with 10 µM [falling, partial curve].
For `CN(C(=O)CSc1nnc(COc2ccccc2)o1)c1ccccc1`, under setting [1], the AC50 is 15.8 µM [falling, partial curve].
As for `CCOc1ccc(OCC)c(NC(=O)c2cc3ccccn3n2)c1`, under setting [1], the AC50 was 31.6 µM [falling, single point].
As to `CCOC(=O)c1c(NC(=O)CSc2nnnn2C)sc(C)c1-c1ccc(C)cc1`, the AC50 under setting [1] was 25.1 µM [falling, partial curve].
On to `Cn1c(=O)c2c(nc(NCCCO)n2Cc2cccc(Br)c2)n(C)c1=O`, for which the AC50 under setting [1] is 25.1 µM [falling, partial curve].
Turning to `O=C(Nc1sc2c(c1C(=O)Nc1ccccc1)CCC2)c1ccc(Br)cc1`, the half-maximal activity concentration (AC50) under setting [1] was 0.501 µM [falling, full curve].
On the same count and under the same terms, then `COC(=O)c1ccc(NC(=O)CSc2nnc3c4ccccc4n(C(C)C)c3n2)cc1`, with 25.1 µM [falling, partial curve]; and `CN1CCN(Cc2nc3c(c(=O)n(C)c(=O)n3C)n2Cc2ccccc2Cl)CC1`, with 15.8 µM [falling, partial curve]; and `Cc1ccc2c(=O)c(C(=O)c3ccc(F)cc3)cn(CC(=O)Nc3ccc4c(c3)OCCO4)c2n1`, with 25.1 µM [falling, single point].
On to `Cc1ccccc1-c1cc(-c2ccccc2O)n[nH]1`, for which the AC50 under setting [1] is 15.8 µM [falling, partial curve, poor fit].
Still for that read-out and setting: next, `O=C(CSc1nccn1C1CCCC1)Nc1cc(C(F)(F)F)ccc1Cl`: 1 µM [falling, full curve, poor fit]; `O=C(c1ccc2c(c1)N(Cc1ccccc1)C(=O)c1ccccc1S2(=O)=O)N1CCc2ccccc21`: 12.6 µM [falling, partial curve, poor fit].
For `CCCNC(=O)CN1C(=O)COc2ccc(S(=O)(=O)N3CCC(C)CC3)cc21`, the half-maximal activity concentration (AC50) under setting [1] was 39.8 µM [falling, single point].
Take `Cc1c(NC(=O)C(C)(C)Oc2ccc(Cl)cc2)cccc1-c1nc2ccccc2o1`: the AC50 under setting [1] was 10 µM [falling, partial curve].
On the same count and under the same terms, then `COc1cc2cc(CNc3ccccc3)c(=O)n(CC(=O)Nc3ccc(C)c(Cl)c3)c2cc1OC`, with 10 µM [falling, partial curve]; and `Cc1ccc(C)c(NC(=O)c2nnn(Cc3ccccc3)c2N)c1`, with 15.8 µM [falling, partial curve].
Regarding `COCCN(Cc1ccco1)C(=O)c1cc2c(=O)[nH]c3ccc(C)cc3c2s1`, under setting [1], the AC50 was 39.8 µM [falling, single point].
As for `COC(=O)c1ccc(NC(=O)CCCC(=O)OCC(=O)c2ccc(Cl)cc2)cc1`, under setting [1], the AC50 was 15.8 µM [falling, single point].
As for `COc1ccc(CCNC(=O)c2cccc(Nc3nc4ccccc4nc3-n3nc(C)cc3C)c2)cc1OC`, under setting [1], the AC50 was 5.01 µM [falling, partial curve].
Regarding `CCOc1c(Br)cc(C2CC(=O)Nc3cc4c(cc32)OCO4)cc1OC` (configuration not stated), the AC50 under setting [1] was 39.8 µM [falling, partial curve].
With `COc1ccc(C2C=C(c3ccc(Cl)cc3)Nc3nc(-c4ccc(Cl)cc4)nn32)cc1` (configuration not stated), under setting [1], the concentration at half-maximal activity (AC50) is 15.8 µM [falling, partial curve].
Take `CCOC(=O)Cn1c(=O)oc2cc(S(=O)(=O)N3CCN(c4cccc(C)c4)C(C)C3)ccc21` (configuration not stated): under setting [1], the AC50 was 10 µM [falling, partial curve].
The same measure, in the same setting: then `Cc1nc(-c2ccc(NC(=O)c3cccs3)cc2)cs1`, with 0.501 µM [falling, full curve]; and `CC1=C(C(=O)OCc2ccc3c(c2)OCO3)C(c2ccc(F)cc2)NC(=O)N1` (configuration not stated), with 12.6 µM [falling, partial curve].
Consider `CCC(=O)c1ccc(OCC(O)CN2CCN(c3cccc(C(F)(F)F)c3)CC2)cc1` (configuration not stated), for which the concentration at half-maximal activity (AC50) under setting [1] is 15.8 µM [falling, partial curve].
Still for that read-out and setting: next, `O=C1CCSC2(C(=O)N(Cc3ccc(F)cc3)c3ccccc32)N1c1ccc(Cl)cc1` (configuration not stated): 15.8 µM [falling, partial curve]; `COc1ccc(Cl)cc1NC(=O)N1CCN(Cc2cc(=O)n3nc(-c4ccccc4)sc3n2)CC1`: 12.6 µM [falling, partial curve].
Turning to `Cc1nnc(NC(=O)C2COc3ccccc3O2)s1` (configuration not stated), the AC50 under setting [1] was 12.6 µM [falling, partial curve].
Regarding `COc1ccc(C(=O)COC(=O)c2cc(-c3cccs3)nc3ccccc23)cc1`, the half-maximal activity concentration (AC50) under setting [1] was 31.6 µM [falling, partial curve].
As for `Cc1cccc(N2CCN(S(=O)(=O)c3cc(C(=O)Nc4ccc(Oc5ccccc5)cc4)ccc3F)CC2)c1C`, the AC50 under setting [1] is 5.01 µM [falling, partial curve].
Same read-out and setting: next, `O=c1oc2ccccc2c(N2CCN(c3ccc(F)cc3)CC2)c1CN1CCCC1`: 15.8 µM [falling, partial curve]; `C=CCn1cnc2c(NCc3ccccc3)ncnc21`: 12.6 µM [falling, partial curve]; `Cc1ccccc1NC(=O)Cn1c(=O)n(CCc2ccccc2)c(=O)c2ccccc21`: 10 µM [falling, partial curve].
Turning to `COc1ccc(-c2nnc(SCC(=O)c3cc(C)n(Cc4cccs4)c3C)o2)cc1`, under setting [1], the AC50 was 39.8 µM [rising, single point].
For the compound `CCc1nn2c(=O)cc(COC(=O)c3ccccc3NC(=O)COc3ccc(C)c(C)c3)nc2s1`, under setting [1], the concentration at half-maximal activity (AC50) is 5.01 µM [falling, partial curve].
Regarding `CCCCn1cc(S(=O)(=O)c2cc(C)ccc2C)c(=O)c2cc(F)c(F)cc21`, the half-maximal activity concentration (AC50) under setting [1] was 25.1 µM [falling, single point].
As to `COc1ccc(Br)cc1[C@@H]1Nc2ccc(C(=O)O)cc2[C@@H]2C=CC[C@@H]21`, the AC50 under setting [1] is 10 µM [falling, partial curve].
Turning to `Cc1c(Cl)cccc1-n1ncc(C(=O)NC2CCCCC2)c1C1CCN(C(=O)OC(C)(C)C)CC1`, the AC50 under setting [1] is 15.8 µM [falling, partial curve].
Take `CC(=O)OCC(=O)[C@@]12OC(C)(C)O[C@@H]1C[C@H]1[C@H]3C[C@H](F)C4=CC(=O)C=C[C@@]4(C)[C@]3(F)[C@H](O)C[C@@]12C`: under setting [1], the AC50 is 3.16 nM [rising, full curve, poor fit] [measured here: IkB-luc green channel].
Turning to `CCOc1ccc(/C=C/c2nc(C#N)c(NC(C)c3ccccc3)o2)cc1` (configuration not stated), the AC50 under setting [1] is 39.8 µM [falling, single point].
For the compound `COc1ccc(C)cc1NC(=O)Nc1cccc(OCc2cc(=O)n3ccc(C)cc3n2)c1`, under setting [1], the AC50 is 1.58 µM [falling, full curve].
Take `Cc1ccccc1OCC(=O)NCC(c1ccc(Cl)cc1)N1CCCCC1` (configuration not stated): the concentration at half-maximal activity (AC50) under setting [1] was 31.6 µM [falling, single point].
Regarding `CCOC(=O)c1ccc(-n2c(CCC(=O)O)ccc2-c2ccccc2)cc1`, under setting [1], the concentration at half-maximal activity (AC50) is 25.1 µM [falling, partial curve].
On the same count and under the same terms, next, `COc1ccc(C(=O)CC2(O)C(=O)N(Cc3cccc(C(F)(F)F)c3)c3ccccc32)cc1` (configuration not stated): 39.8 µM [falling, single point]; `COc1cccc(C(=O)N2c3ncnn3C3(CCCCC3)[C@@H]3CCCC[C@@H]32)c1`: 12.6 µM [falling, partial curve].
With `O=C(CC(c1ccccc1)c1cc(Br)ccc1O)NCc1ccco1` (configuration not stated), the AC50 under setting [1] is 15.8 µM [falling, partial curve].
Take `CN(Cc1ccccc1)S(=O)(=O)c1ccc(NC(=O)c2cc(=O)c3ccccc3o2)cc1`: the half-maximal activity concentration (AC50) under setting [1] was 3.16 µM [falling, full curve].
Regarding `CCc1cccc(C)c1NC(=O)CN1C(=O)C2(SCC(=O)N2c2cccc(F)c2)c2ccccc21` (configuration not stated), the half-maximal activity concentration (AC50) under setting [1] is 25.1 µM [falling, single point].
Turning to `CCOc1cccc2cc(S(=O)(=O)c3ccccc3F)c(=O)oc12`, under setting [1], the AC50 is 39.8 µM [falling, single point].
In the case of `COc1cccc(-c2nc(SCC(=O)NC3CCCC3)c(-c3ccc(C)cc3)[nH]2)c1`, the concentration at half-maximal activity (AC50) under setting [1] is 10 µM [falling, partial curve].

Broadly, the AC50 is the concentration giving half of the maximal activity seen.

For the origin of these results see PubChem BioAssay AID445 (National Center for Advancing Translational Sciences (NCATS), 2006).
